Data taken from the supplement of paper PMC12067093, “Discovery and optimisation of a covalent ligand for TRIM25 and its application to targeted protein ubiquitination” (Chemical Science, 2025).
This is one part of the list.

By UniProt entry, the sequences of proteins in these tests, tags left out. Where a name states a change or a piece, a line headed by the entry shows the natural chain unless it says otherwise.
UniProt P51809, whole entry, looked up: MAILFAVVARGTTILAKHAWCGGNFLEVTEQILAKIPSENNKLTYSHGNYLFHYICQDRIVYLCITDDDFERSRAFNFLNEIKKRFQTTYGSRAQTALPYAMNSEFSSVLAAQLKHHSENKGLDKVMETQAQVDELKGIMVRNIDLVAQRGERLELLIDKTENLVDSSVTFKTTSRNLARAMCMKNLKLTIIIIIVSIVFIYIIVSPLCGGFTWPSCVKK
UniProt Q7Z5K2: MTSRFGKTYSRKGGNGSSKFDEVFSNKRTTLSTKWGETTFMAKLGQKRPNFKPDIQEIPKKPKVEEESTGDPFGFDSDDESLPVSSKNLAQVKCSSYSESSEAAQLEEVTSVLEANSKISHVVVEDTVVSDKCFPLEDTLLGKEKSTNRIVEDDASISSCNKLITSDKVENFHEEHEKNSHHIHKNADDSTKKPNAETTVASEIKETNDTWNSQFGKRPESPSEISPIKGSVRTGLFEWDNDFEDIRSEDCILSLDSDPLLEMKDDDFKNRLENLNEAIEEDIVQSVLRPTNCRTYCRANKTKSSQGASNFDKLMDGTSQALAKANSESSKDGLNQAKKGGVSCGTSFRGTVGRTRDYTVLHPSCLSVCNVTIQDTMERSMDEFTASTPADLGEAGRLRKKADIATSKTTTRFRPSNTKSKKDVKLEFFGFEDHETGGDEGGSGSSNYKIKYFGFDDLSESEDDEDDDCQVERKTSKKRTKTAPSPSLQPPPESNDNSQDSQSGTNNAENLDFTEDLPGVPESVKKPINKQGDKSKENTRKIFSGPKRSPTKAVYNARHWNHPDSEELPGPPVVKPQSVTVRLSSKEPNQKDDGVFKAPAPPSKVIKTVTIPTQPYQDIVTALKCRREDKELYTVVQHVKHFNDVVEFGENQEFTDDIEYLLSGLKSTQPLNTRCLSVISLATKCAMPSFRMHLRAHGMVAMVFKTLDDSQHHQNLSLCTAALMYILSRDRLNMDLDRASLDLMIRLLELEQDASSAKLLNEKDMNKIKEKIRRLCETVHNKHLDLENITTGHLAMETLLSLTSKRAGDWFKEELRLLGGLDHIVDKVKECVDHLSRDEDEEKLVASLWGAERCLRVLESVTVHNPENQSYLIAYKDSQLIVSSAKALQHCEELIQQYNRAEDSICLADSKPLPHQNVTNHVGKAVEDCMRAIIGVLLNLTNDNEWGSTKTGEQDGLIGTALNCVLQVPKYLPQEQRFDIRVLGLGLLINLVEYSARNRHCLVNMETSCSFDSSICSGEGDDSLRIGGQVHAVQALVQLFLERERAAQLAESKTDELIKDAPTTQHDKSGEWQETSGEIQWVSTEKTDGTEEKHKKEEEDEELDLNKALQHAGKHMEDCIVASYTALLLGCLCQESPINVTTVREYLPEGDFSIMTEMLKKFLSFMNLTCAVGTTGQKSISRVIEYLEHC
UniProt P55072, whole entry, looked up: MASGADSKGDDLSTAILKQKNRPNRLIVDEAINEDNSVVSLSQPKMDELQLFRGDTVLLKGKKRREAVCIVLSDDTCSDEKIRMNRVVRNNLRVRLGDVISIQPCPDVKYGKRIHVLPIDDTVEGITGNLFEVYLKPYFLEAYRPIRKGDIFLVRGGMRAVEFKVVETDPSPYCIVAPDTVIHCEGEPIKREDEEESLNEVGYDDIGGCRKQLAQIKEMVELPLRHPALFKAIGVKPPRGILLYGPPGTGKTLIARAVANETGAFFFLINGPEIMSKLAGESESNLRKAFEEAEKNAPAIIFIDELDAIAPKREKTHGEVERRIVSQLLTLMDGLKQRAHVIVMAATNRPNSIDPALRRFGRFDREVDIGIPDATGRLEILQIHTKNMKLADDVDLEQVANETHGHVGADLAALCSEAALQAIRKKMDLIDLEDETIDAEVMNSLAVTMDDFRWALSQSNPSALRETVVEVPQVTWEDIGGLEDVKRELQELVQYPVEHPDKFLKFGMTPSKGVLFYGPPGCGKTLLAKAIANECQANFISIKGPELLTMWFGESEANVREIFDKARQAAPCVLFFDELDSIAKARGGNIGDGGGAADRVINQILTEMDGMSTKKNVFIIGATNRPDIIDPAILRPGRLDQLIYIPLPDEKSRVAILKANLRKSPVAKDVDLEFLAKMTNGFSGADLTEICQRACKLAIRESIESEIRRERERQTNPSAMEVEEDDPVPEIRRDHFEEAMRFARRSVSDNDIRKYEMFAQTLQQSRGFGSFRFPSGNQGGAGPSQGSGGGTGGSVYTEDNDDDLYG
UniProt Q93009, whole entry, looked up: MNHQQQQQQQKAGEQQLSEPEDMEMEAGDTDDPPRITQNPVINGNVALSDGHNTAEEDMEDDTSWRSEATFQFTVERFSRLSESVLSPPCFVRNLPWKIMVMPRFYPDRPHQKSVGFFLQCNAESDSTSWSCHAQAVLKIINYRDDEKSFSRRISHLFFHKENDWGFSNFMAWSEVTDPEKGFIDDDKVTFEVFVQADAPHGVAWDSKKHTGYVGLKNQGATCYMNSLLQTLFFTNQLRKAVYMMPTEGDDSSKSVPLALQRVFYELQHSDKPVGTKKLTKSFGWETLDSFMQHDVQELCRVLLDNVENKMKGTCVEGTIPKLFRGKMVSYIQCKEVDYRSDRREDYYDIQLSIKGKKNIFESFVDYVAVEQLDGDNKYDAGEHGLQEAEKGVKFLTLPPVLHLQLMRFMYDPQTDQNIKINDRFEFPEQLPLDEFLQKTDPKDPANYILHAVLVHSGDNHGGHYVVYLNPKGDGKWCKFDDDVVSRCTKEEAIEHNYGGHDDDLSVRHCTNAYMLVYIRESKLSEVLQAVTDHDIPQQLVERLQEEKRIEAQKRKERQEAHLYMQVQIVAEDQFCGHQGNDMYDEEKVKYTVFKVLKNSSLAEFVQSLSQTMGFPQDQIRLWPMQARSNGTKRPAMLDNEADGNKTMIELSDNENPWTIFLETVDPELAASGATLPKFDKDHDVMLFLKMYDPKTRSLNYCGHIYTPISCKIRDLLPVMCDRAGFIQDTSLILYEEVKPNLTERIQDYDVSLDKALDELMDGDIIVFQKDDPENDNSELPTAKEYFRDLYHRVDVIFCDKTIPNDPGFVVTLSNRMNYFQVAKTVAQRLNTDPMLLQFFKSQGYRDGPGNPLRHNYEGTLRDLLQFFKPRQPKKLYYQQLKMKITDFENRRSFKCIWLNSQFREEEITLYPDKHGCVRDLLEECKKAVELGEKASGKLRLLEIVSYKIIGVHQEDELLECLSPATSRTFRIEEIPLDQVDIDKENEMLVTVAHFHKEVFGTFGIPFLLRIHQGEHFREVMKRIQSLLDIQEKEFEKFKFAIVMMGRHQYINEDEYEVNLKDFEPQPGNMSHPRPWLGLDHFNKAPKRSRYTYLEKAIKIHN
UniProt Q9P2Y5: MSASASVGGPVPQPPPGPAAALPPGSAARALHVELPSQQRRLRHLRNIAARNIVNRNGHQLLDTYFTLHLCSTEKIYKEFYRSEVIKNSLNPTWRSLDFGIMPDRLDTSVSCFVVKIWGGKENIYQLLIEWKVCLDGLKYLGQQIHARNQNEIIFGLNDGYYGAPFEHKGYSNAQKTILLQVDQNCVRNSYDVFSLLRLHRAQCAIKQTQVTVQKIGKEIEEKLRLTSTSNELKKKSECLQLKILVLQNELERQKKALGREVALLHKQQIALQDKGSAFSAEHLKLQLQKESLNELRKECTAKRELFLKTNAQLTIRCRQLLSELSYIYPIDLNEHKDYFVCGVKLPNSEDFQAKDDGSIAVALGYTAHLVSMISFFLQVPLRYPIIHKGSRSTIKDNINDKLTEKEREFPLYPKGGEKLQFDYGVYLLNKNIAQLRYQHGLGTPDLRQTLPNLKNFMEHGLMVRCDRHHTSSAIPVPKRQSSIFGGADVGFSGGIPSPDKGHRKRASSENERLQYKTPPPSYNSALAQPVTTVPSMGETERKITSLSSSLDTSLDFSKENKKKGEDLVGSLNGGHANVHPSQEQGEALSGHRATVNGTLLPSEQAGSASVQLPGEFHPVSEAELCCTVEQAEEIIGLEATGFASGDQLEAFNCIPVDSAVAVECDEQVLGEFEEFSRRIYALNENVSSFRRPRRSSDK
UniProt O00507: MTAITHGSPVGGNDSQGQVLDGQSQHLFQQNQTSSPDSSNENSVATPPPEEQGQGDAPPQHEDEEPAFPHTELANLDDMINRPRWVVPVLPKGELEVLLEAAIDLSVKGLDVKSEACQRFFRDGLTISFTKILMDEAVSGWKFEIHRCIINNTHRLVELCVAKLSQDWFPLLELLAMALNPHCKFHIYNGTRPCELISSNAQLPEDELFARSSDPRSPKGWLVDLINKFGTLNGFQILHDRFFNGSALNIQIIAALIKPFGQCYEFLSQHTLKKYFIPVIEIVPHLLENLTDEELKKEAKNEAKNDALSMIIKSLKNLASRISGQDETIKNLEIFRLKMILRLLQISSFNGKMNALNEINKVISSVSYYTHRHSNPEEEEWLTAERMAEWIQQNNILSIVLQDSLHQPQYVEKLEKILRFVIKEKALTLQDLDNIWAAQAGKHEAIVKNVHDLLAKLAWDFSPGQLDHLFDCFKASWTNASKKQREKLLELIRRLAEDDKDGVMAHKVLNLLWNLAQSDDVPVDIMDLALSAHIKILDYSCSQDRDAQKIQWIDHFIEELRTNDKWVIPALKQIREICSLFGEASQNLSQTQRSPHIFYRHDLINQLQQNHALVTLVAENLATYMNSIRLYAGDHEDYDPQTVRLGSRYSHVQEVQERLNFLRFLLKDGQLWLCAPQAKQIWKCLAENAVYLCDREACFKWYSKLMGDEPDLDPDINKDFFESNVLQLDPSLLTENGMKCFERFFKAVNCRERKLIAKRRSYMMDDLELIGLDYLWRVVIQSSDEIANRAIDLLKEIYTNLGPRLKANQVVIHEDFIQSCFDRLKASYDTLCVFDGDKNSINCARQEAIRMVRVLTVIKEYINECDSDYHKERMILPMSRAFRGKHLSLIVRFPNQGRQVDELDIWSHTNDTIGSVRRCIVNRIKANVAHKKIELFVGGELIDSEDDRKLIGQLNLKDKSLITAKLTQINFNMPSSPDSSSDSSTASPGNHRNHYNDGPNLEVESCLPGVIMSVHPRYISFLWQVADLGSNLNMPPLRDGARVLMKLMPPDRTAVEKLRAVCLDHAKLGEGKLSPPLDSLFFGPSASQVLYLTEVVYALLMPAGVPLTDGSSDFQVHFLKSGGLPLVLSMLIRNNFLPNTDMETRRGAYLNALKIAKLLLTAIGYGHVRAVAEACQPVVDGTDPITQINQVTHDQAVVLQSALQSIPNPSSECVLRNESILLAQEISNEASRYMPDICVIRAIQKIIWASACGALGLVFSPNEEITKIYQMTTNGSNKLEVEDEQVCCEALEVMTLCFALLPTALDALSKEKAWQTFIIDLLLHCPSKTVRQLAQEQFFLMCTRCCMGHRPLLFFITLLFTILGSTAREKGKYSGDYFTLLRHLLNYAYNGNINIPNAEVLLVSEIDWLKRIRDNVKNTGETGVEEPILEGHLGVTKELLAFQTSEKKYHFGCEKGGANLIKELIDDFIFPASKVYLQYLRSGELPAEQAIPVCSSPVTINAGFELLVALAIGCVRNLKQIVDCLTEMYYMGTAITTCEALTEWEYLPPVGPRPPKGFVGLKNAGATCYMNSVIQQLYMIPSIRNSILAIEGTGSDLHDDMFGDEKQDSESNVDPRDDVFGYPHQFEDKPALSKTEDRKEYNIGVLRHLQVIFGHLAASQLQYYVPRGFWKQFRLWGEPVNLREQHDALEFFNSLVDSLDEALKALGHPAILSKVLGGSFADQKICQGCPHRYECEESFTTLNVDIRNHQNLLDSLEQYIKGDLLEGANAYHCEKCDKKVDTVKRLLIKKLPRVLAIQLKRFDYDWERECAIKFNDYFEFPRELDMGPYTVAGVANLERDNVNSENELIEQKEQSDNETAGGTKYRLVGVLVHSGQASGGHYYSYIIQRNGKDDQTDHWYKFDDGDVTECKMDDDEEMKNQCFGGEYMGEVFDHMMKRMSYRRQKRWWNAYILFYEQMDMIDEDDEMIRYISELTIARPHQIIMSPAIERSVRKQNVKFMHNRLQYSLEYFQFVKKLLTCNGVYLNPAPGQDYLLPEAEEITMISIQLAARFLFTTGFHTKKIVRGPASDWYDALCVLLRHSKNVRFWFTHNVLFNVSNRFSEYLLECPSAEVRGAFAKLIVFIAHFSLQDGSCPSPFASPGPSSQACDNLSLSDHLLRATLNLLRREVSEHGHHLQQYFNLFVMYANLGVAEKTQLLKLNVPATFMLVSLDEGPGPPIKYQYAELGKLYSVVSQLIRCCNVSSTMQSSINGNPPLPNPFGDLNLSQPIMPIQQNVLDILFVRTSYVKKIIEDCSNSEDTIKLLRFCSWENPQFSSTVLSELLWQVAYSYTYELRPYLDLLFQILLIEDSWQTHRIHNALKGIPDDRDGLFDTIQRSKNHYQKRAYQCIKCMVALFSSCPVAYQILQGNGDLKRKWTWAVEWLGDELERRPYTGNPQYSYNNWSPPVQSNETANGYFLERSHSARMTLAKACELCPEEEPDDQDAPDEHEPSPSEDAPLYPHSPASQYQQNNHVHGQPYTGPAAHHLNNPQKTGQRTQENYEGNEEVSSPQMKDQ

Compound: CC1Cc2ccccc2N1C(=O)C1CCCN(C1)C(=O)CCl (mixture of isomers) [TRIM25 ligand 11 (diastereomer mixture)]
Experiment: probe-labelled cysteine peptide fold change vs DMSO (competition) (log2 fold change); higher = less target engagement (more negative = stronger competition)
Details: THP-1, incubation time: 4 h
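Note: competitive chemoproteomic profiling in live THP-1 cells with an iodoacetamide desthiobiotin (IA-DTB) probe, comparing probe-labelled peptide intensities in compound-treated cells against DMSO-treated controls.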

| Target | probe-labelled cysteine peptide fold change (10 µM) | probe-labelled cysteine peptide fold change (50 µM) |
| --- | --- | --- |
| VAMP7_P51809_56_LTYSHGNYLFHYICQDR (UniProt P51809) | 0.291 | 0.218 |
| WAPL_Q7Z5K2_1190_VIEYLEHC (UniProt Q7Z5K2) | -0.0222 | 0.0926 |
| VCP_P55072_174+184_VVETDPSPYCIVAPDTVIHCEGEPIKR (UniProt P55072) | -0.0334 | -0.207 |
| VPS8_Q8N3P4_974_AMDHIEELVSLKPCK (UniProt Q8N3P4) | 0.113 | -0.078 |
| USP7_Q93009_799_VDVIFCDK (UniProt Q93009) | 0.0636 | 0.0592 |
| WAPL_Q7Z5K2_344_KGGVSCGTSFR (UniProt Q7Z5K2) | -0.0736 | -0.111 |
| VLDLR_P98155_127_IHEISCGAHSTQCIPVSWR (UniProt P98155) | 0.112 | 0.0305 |
| VARS_P26640_381_MRGETTLWNPGCDHAGIATQVVVEK (UniProt P26640) | 0.0494 | -0.0393 |
| VARS_P26640_194_WFVTCVR (UniProt P26640) | -0.214 | 0.167 |
| UTP23_Q9BRU9_207_ISGPNPLSCLK (UniProt Q9BRU9) | -0.071 | -0.0449 |
| VPS37A_Q8NEZ2_375_TICHCR (UniProt Q8NEZ2) | 0.905 | 0.772 |
| UVRAG_Q9P2Y5_71_NGHQLLDTYFTLHLCSTEK (UniProt Q9P2Y5) | 0.00874 | -0.106 |
| VPS13B_Q7Z7G8_868_CASGTMGSIK (UniProt Q7Z7G8) | -0.0295 | -0.0154 |
| VCP_P55072_184_VVETDPSPYCIVAPDTVIHCEGEPIKR (UniProt P55072) | 0.211 | -0.0862 |
| VPS11_Q9H270_709_QVISVCER (UniProt Q9H270) | 0.271 | 0.0559 |
| VPS29_Q9UBQ0_41_IQHILCTGNLCTK (UniProt Q9UBQ0) | -0.09 | -0.0263 |
| VRK1_Q99986_220_CHDGTIEFTSIDAHNGVAPSR (UniProt Q99986) | 0.0205 | -0.0347 |
| VPS13C_Q709C8_3723_ACNAIEDAQSTR (UniProt Q709C8) | -0.104 | -0.104 |
| UTRN_P46939_2986_EVAGPTEMCDQR (UniProt P46939) | 0.0703 | -0.114 |
| USP9Y_O00507_684_CLAENAVYLCDR (UniProt O00507) | 0.141 | 0.101 |

| Target | probe-labelled cysteine peptide fold change (10 µM) | probe-labelled cysteine peptide fold change (50 µM) |
| --- | --- | --- |
| VPS52_Q8N1B4_119_SIRDYIQESENIASLHNQITACDAVLER (UniProt Q8N1B4) | -0.293 | -0.191 |
| VPS4A_Q9UN37_403_LLEPVVCMSDMLR (UniProt Q9UN37) | -0.0613 | 0.0414 |
| VARS_P26640_479_LVNWSCTLNSAISDIEVDK (UniProt P26640) | 0.193 | 0.0394 |
| VAV3_Q9UKW4_44_DGVLLCQLLNNLR (UniProt Q9UKW4) | 0.245 | 0.381 |
| VPS18_Q9P253_947_ADLDELVAAECVYCGELMIR (UniProt Q9P253) | 0.712 | 0.481 |
| VCP_P55072_209_REDEEESLNEVGYDDIGGCR (UniProt P55072) | 0.168 | 0.0307 |
| VCL_P18206_545_CDRVDQLTAQLADLAAR (UniProt P18206) | -0.0502 | 0.105 |
| WAPL_Q7Z5K2_906_AEDSICLADSKPLPHQNVTNHVGK (UniProt Q7Z5K2) | 0.0419 | -0.166 |
| VPS35_Q96QK1_156_NYLLQCTR (UniProt Q96QK1) | 0.106 | 0.0964 |
| USP7_Q93009_961_IIGVHQEDELLECLSPATSR (UniProt Q93009) | 0.324 | 0.123 |
| VPS16_Q9H269_36_EELRDCLVAAAPYGGPIALLR (UniProt Q9H269) | 0.37 | 0.395 |
| VARS_P26640_381_GETTLWNPGCDHAGIATQVVVEK (UniProt P26640) | 0.0505 | 0.084 |
| VPS35_Q96QK1_673_AVSTCAHLFWSGR (UniProt Q96QK1) | -0.176 | -0.348 |
| VARS_P26640_340_GVFMMCIPPPNVTGSLHLGHALTNAIQDSLTR (UniProt P26640) | -0.0333 | -0.0484 |
| UVRAG_Q9P2Y5_204_AQCAIK (UniProt Q9P2Y5) | -0.119 | 0.075 |
| WAPL_Q7Z5K2_1170_FLSFMNLTCAVGTTGQK (UniProt Q7Z5K2) | -0.064 | 0.00311 |
| VIRMA_Q69YN4_1008_CTLTLLK (UniProt Q69YN4) | 0.0168 | 0.171 |
| USP9Y_O00507_1238_YMPDICVIR (UniProt O00507) | -0.0169 | -0.186 |
| VPS13A_Q96RL7_582_CIIEAEPLEIIYDAR (UniProt Q96RL7) | 0.149 | 0.211 |
